Data as given in publication PMC6533518.
Results are given in words; binding and its absence hold for the method and conditions named. In cells and extracts the contact can be indirect. Some entries that bind do so weakly or less than the wild type.

By UniProt entry, the sequences of proteins in these tests, tags left out. Residues count along the entry.
UniProt P30405, residues 30-207: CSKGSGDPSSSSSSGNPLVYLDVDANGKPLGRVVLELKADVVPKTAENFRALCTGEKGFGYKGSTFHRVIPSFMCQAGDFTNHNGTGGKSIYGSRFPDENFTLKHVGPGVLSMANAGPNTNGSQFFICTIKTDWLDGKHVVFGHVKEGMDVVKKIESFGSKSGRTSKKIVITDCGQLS
UniProt P10415: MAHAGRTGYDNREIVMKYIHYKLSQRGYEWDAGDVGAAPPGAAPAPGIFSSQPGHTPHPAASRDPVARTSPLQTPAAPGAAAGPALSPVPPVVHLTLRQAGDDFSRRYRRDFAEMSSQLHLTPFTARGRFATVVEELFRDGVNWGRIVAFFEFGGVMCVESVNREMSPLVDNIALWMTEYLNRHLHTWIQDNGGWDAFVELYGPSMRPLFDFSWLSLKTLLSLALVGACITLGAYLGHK

Molecular target: cyclophilin D (human (endogenous in HOK)) (UniProt P30405)
Experiment: co-IP; mitochondrial extract of HOK cells; immunoprecipitation with anti-CypD antibody, protein A/G-agarose, overnight at 4°C; 20 mmol/L Tris-HCl pH 7.5, 150 mmol/L NaCl, 1.5% Nonidet P-40; Western blot for Bcl2

binding: binds
Substance: Bcl2 (from UniProt P10415 1-239)
